According to the supplement of paper PMC3334620:
Over roughly 33,000 sequences, “E-score (-0.5 to 0.5)” has its median near -0.0034; the highest 2% begin near 0.25. Some of the results follow.

These sequences were tested against T1, Yap3 (UniProt P38749) (assay: PBM E-score (8-mer binding enrichment) (E-score (-0.5 to 0.5)); higher = stronger / more preferred TF binding). Conditions: protein concentration: 100 nM; construct: GST-full length.
T1 sequence: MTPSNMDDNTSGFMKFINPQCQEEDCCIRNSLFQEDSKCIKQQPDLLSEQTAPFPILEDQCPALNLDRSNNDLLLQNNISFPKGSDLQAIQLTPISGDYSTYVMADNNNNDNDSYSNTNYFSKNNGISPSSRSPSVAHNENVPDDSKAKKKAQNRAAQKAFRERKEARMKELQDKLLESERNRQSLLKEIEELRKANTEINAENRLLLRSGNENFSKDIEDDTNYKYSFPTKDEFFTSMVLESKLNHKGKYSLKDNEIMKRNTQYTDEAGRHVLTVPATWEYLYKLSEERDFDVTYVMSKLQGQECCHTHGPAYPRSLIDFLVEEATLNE
Outline: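 Universal all-10-mer Agilent arrays, fresh or stripped once, were converted to double-stranded form by primer extension. GST-tagged yeast transcription factors from PURExpress in vitro transcription/translation, full-length or DNA-binding domain only, were applied at about 100-200 nM and detected with fluorescent anti-GST. After masliner normalisation, the Universal PBM Analysis Suite scored each ungapped eight-base word together with its reverse complement by E-score.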

Row | Sequence | PBM E-score
1 | ATCATAAG | 0.247
2 | ATCCAATC | -0.0624
3 | GAGTCCCC | -0.429
4 | ACTTAGAA | 0.0127
5 | AGCACGGC | -0.11
6 | ACAGGAGT | -0.0338
7 | TACGCTGA | 0.156
8 | ATGCAAAC | 0.0275
9 | ATTGACGA | 0.135
10 | GTCAGAGA | -0.225
11 | TTATGGAA | 0.0926
12 | ACTTTTAC | 0.243
13 | CAGCCTGA | -0.138
14 | CCCATAAA | -0.168
15 | AAACAATG | 0.138
16 | AATAAATG | 0.216
17 | CGCCTGTA | -0.104
18 | ATCCGGAG | 0.0875
19 | ACATGCAT | 0.188
20 | CCCACCGG | -0.36
21 | GTGGATGA | 0.0954
22 | GTGGGCTA | -0.0311
23 | CATGTCTA | -0.0383
24 | AGAAGTCG | 0.0232
25 | AATGGTGA | 0.0242

Row | Sequence | PBM E-score
26 | GCCATAGA | -0.0632
27 | AGAAATAA | 0.228
28 | CGGCGAAA | 0.23
29 | AATCTTAA | 0.0551
30 | CGGGCTGA | -0.166
31 | AGACTTAA | -0.0445
32 | ATCAAAGC | 0.115
33 | TCGGCCGA | 0.2
34 | ACAGCTGT | 0.0872
35 | TAGCGAAA | 0.146
36 | TAGCTACA | 0.125
37 | CAAGAGAC | -0.0846
38 | ATCGCTGA | 0.198
39 | CGCGGCGC | 0.106
40 | ACATAGAT | 0.082
41 | CCCCTTTC | -0.222
42 | CCCCACAC | -0.147
43 | TCACCGGA | 0.145
44 | GGAGAAAC | 0.116
45 | ATGTGATG | -0.0625
46 | CTACCTCC | -0.0834
47 | AAGGAGGG | -0.0663
48 | CAAACGGA | 0.0334
49 | ACACTGCG | 0.0965
50 | ACCCATAC | 0.00765

Row | Sequence | PBM E-score
51 | ACTGCCCT | -0.127
52 | AAAAAGGC | 0.0304
53 | AAAGTGCA | 0.0828
54 | AACTGAGT | -0.0529
55 | CCTCCTCA | -0.255
56 | TCCAGACA | -0.102
57 | GACTTGTA | -0.164
58 | AGCCCAGG | -0.336
59 | GAGACGCC | -0.105
60 | GTAACTCA | -0.212
61 | AGACACGC | -0.135
62 | AATGGTAT | 0.167
63 | GTCATGAC | 0.138
64 | ACCAAATG | 0.0905
65 | CGAAACAA | 0.194
66 | ACCCTAGT | -0.0742
67 | GAAACTCA | -0.0239
68 | GCAATCCA | 0.0882
69 | AAGAGCGA | -0.108
70 | CGGATAAG | 0.144
71 | AATCTCGA | 0.00168
72 | CGTGGCCC | -0.286
73 | ACCATATA | 0.285
74 | GGGGTGCA | -0.0791
75 | CGACTGCG | -0.123

Row | Sequence | PBM E-score
76 | ACTCGGAA | 0.156
77 | TATCGGCA | 0.0304
78 | CCCCAATC | -0.0938
79 | TTCAGCAA | 0.193
80 | ACAACCGC | 0.116
81 | CGTCGCTC | -0.18
82 | AATTTGAT | 0.0887
83 | ACCGCTCA | -0.0569
84 | GGGCCCAC | -0.121
85 | ATTTCGAC | -0.0412
86 | GCAACAGC | -0.178
87 | CGGGAGTA | -0.0249
88 | CGAGACAG | 0.0404
89 | ACGTTGTC | -0.014
90 | ATGAGTAG | 0.195
91 | AAGCACGC | -0.0279
92 | GAAAGTTA | 0.124
93 | AATAAACT | 0.0576
94 | GCCCTAGA | -0.25
95 | CATGAGCG | 0.0727
96 | GACCTATC | -0.039
97 | TCCTACAA | 0.0495
98 | AGTCGCAG | -0.0563
99 | TGCCCACA | -0.204
100 | GGCCACTA | -0.0853

Row | Sequence | PBM E-score
101 | CAACCCAA | -0.0163
102 | GCCCCGTA | -0.189
103 | ACCAGGCT | -0.128
104 | GGTTGGAA | -0.058
105 | ATGCACGC | -0.0147
106 | CGTACAAC | 0.0189
107 | ACATTTCG | 0.0557
108 | GTCCTGCA | -0.215
109 | ATGGTCCG | 0.0335
110 | CCCCCCGA | -0.369
111 | CGGTGTTA | 0.015
112 | ATGCGGGC | 0.00517
113 | ACATCAGT | 0.105
114 | CAAGAAAC | 0.197
115 | AAAACGCT | -0.112
116 | AGGAATTC | -0.0343
117 | CAACTATA | 0.0103
118 | ACCGTCCA | -0.0152
119 | ACGGGGTG | -0.00572
120 | CCTTCACC | -0.104
121 | AGATTGGG | 0.101
122 | TGAATTAA | 0.234
123 | ACGTCAAT | 0.0771
124 | AAAATTTC | -0.00715
125 | CAACGGTG | -0.243

Row | Sequence | PBM E-score
126 | ATGCAGCA | 0.0337
127 | CACCGCGA | -0.00404
128 | ATTACCCA | 0.233
129 | CGATTTAC | 0.0559
130 | AATGTTTA | 0.013
131 | TCTTATCA | 0.126
132 | GATCGCCC | -0.164
133 | ACTAGGTC | -0.0366
134 | ACAAGCTA | 0.0336
135 | CGACGGCC | -0.0375
136 | ACGAGCCG | -0.0182
137 | CCACCATC | -0.238
138 | AAACTCAG | 0.0292
139 | CGCCCGAA | -0.0199
140 | ATTCCATA | 0.101
141 | AAAACACA | 0.109
142 | AAAAAAAG | 0.153
143 | TGGGCTAA | 0.0114
144 | AACGGTCG | 0.105
145 | CCTCGGCG | 0.0248
146 | AGGAGCCC | -0.164
147 | AAGTCGAC | 0.189
148 | CTTCAACA | 0.166
149 | GATGAAAA | 0.111
150 | AGCAATTC | 0.134

Row | Sequence | PBM E-score
151 | AGGGCGCG | -0.195
152 | AAATGCTC | 0.11
153 | CTTCTTAA | 0.217
154 | CCTCAGTC | -0.155
155 | TAGCCCTA | -0.125
156 | AAGATCAG | -0.158
157 | ACTCGGTA | 0.0865
158 | CTCTGATA | -0.00147
159 | CGCGCAGC | -0.194
160 | CCTATTCG | -0.126
161 | AATCATAC | 0.168
162 | AACACGCT | 0.147
163 | ACCGTCTA | -0.0863
164 | AAAGTCGA | 0.0242
165 | GAGCACGC | -0.299
166 | CTTTTCTC | 0.0296
167 | ACTCTAGC | -0.119
168 | CTGTGTCC | -0.0508
169 | CGACTATC | -0.135
170 | ATAGAAAT | 0.226
171 | ATCCCCAA | 0.0394
172 | CCTGGTCC | -0.108
